# Screening data, single-dose tests

Chains of the proteins cited; added tags and fusions are not shown.
UniProt P9WPC5, whole entry: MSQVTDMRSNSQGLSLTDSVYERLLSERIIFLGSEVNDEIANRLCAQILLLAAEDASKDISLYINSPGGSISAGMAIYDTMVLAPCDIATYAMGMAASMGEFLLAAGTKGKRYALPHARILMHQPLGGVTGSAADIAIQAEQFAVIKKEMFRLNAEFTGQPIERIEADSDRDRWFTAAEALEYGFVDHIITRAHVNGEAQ
UniProt P9WPC3, whole entry partner: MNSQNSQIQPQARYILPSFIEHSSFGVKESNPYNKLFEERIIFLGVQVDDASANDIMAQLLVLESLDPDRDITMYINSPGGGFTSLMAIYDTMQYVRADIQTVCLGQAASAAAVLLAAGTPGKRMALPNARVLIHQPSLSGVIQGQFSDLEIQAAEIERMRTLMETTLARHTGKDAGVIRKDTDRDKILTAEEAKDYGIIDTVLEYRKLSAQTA

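ClpP1P2, Mycobacterium tuberculosis (UniProt P9WPC5 and UniProt P9WPC3). Protease assay of ClpP1P2, read by the AMC dye that it sets free. Concentration: 50 µM. Direction is inferred from only a few compounds that gave an IC50; most scored high, so higher reads as stronger inhibition. Most other retested compounds had strongly negative values. Size under these conditions: about 69,000 compounds, about 10 of them at 50% or above in at least one test.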

Values are the deposited “Percent Effect”, in %. How 0% and 100% were set is not recorded. Most values in the screen are low, and negative values occur. The compounds are a random part of those screened.

structure,Percent Effect
C[C@@H]1C(=O)NC[C@H]2CN(Cc3ccc4c(c3)OCO4)C[C@H]21,-10.19%
CC(C)c1nc(CNc2ccc(CCO)cc2)cs1,-9.929%
COc1ccc(CN2CC(O)CN(C(=O)OCC(C)C)CC2=O)cc1 (configuration not stated),12.37%
CN1C[C@@H](n2cnc(-c3ccccc3)c2-c2c[nH]cn2)C[C@H]1C(=O)O,-7.471%
CNc1ccnc(N2CCCC(C(=O)c3ccccn3)C2)n1 (configuration not stated),-0.6954%
Cc1ccccc1CNc1ccccc1OCC(=O)N1CCOCC1,-3.61%
CC(=O)c1ccc(N2CCN(C(=O)NCc3cc[nH]n3)CC2)cc1,-22.16%
COCCn1ccc(NC(=O)Nc2cccnc2)n1,-2.411%
COc1ccc(CNC(=O)N2CCc3sccc3C2)cc1O,-2.842%
CCC(=O)N1CC[C@H](O)[C@@H]1Cc1ccccc1,-0.2948%
O=C(c1ccnnc1)N1C[C@H](OCC2CCOCC2)[C@H]2OCCC[C@H]21,-10.71%
CS(=O)(=O)N1CCCC1c1cccc(Nc2nccs2)n1 (configuration not stated),-9.466%
CCC(=O)CNC(=O)CCn1nc2ccccn2c1=O,-6.074%
O=C(Cc1ccccc1)N1CCC2(CC1)CN(c1ncccn1)CCO2,4.969%
Cc1cc(C)n(C2CCCN(C(=O)c3cc(C(N)=O)cs3)C2)n1 (configuration not stated),-21.01%
COc1cc(F)c(C(=O)NCc2ccon2)c(F)c1,-4.272%
NC(=O)C1Cn2ccnc2C2(CCN(C(=O)NC3CCCC3)CC2)O1 (configuration not stated),0.7769%
COCc1nc(C(=O)N2CCCC2c2ccncc2)cs1 (configuration not stated),18.14%
Cc1ncnc2c1CCN(Cc1ccc3c(c1)OCO3)CC2,6.513%
Cc1cc(-c2cnc(N3CCN(C)CC3)nc2C(C)C)on1,-9.492%
NC(=O)c1ccc(OCC(=O)N2CCCC(n3cccn3)C2)cc1 (configuration not stated),13.54%
CN(C)Cc1noc2c1CN(Cc1ccc[nH]1)CC2,3.035%
CCN1CCn2cc(CNC(=O)c3cnn(C)c3)nc2C1,-5.818%
COc1ccc(C(=O)NC2CC2)c(OC2CCN(CCCSC)CC2)c1,-3.008%
O=C(NCCCOC1CCCCC1)C1NCCc2[nH]cnc21 (configuration not stated),11.71%
COc1ncccc1CNC(=O)NC1CCCOc2ccccc21 (configuration not stated),-38.28%
CC(OCCCNC(=O)c1cccnc1O)c1ccccc1 (configuration not stated),10.47%
Cc1cc(OCCC(=O)NCc2ccc(F)cc2)nnc1C,2.215%
CNc1nc(C2CCCCN2C(=O)COC)nc2c1CN(C)CC2 (configuration not stated),-0.4971%
CCCC(=O)Nc1ccc(CC(=O)N(C)CCc2cn[nH]c2)cc1,1.756%
Cc1cc(=O)[nH]c(-n2nc(C)c(CCC(=O)NCc3cccs3)c2C)n1,-0.7376%
CNC(=O)c1cc2c(nc1NCC1CC1)CCN(S(=O)(=O)C1CC1)CC2,-143.9%
COCCNC(=O)CN(C)Cc1ccc(F)cc1Cl,-2.617%
Cc1nccn1CCC1CCCCN1Cc1ccc2c(c1)OCCO2 (configuration not stated),-6.342%
O=C(c1sccc1C1CC1)N1CCN(c2nccs2)CC1,4.608%
Cc1ccc(C(=O)N2CCC3(CCC(=O)N(CCN(C)C)C3)CC2)nc1,8.017%
Cc1ccccc1C1CCCN1Cc1ccc(S(=O)(=O)N(C)C)o1 (configuration not stated),-32.32%
CNS(=O)(=O)CC(=O)N(C1CC1)C1Cc2ccccc2C1,-3.221%
CCOc1cc(CNCCCn2ccnc2)cc(Cl)c1OCC,22.35%
Cc1ccccc1CN1C[C@@H](C(=O)N2CCCCO2)C[C@H]2OCC[C@H]21,-6.202%
CCN(Cc1ccccc1)Cc1nc2c(cnn2C)c(=O)[nH]1,-16.61%
CN(Cc1cccc(C(N)=O)c1)CC1CCCN1c1cccnn1 (configuration not stated),-53.41%
FC(F)(F)C1CCCn2c(CNCc3ccco3)nnc21 (configuration not stated),5.689%
CC1c2ncc(COc3cccnc3)n2CCN1C(=O)C1=CCCCC1 (configuration not stated),-13.66%
CC(=O)N1CCN(C(=O)NCc2ccc(Cl)s2)CC1,3.701%
Cc1cc(=O)n2ncnc2n1CC(O)c1ccccc1Cl (configuration not stated),-5.997%
COCc1ccccc1C(=O)NCCCN1CCCC1C(=O)N(C)C (configuration not stated),10.24%
O=C1CC2(CCN(CCO)CC2)CN1Cc1cc(F)cc(F)c1,-0.513%

Some entries from above, unchanged:

{"structure": "CCC(=O)N1CC[C@H](O)[C@@H]1Cc1ccccc1", "Percent Effect": -0.2948}
{"structure": "CC1c2ncc(COc3cccnc3)n2CCN1C(=O)C1=CCCCC1", "stereo": "configuration not stated", "Percent Effect": -13.66}

The values are deposited in ChEMBL (CHEMBL3988442, “University of Dundee, Small-Polar-MMV Screening Library” (2021)).